Results deposited as PubChem BioAssay AID1671195 (Yale University, 2021)

- Assay: 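Knockdowns that increase or decrease uptake of fluorescent LDL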 (primary screen)
- Cell system: human Huh7 hepatoma cells
- Reagent: siRNA pool against human genes, 18 nM
- Time to read-out: about 2 to 2.5 days of knockdown, then 8 h LDL uptake
- Conditions: DiI-labelled LDL at 30 µg/ml for 8 h, in lipoprotein-deficient serum medium
- Measurement: 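Fluorescent LDL signal imaged in cells, scaled to the plate median, robust z-score for each replicate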
- Direction: robust z-score: higher = more LDL uptake after knockdown
- Rule for the call: 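Active when two or more replicates show a robust z-score above 2 or below -2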
Shown is an unselected part of about 22,000 reagents. Of all reagents, about 1,510 (6.9%) were called active. 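Active includes knockdowns raising or lowering LDL uptake; positive z-scores mean more uptake, negative mean less.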 A number with no mark means an inactive call. No sequences are given here.

gene knocked down,"robust z-score, replicate 1","robust z-score, replicate 2","robust z-score, replicate 3"
LOC389607 (retired record),-0.803,-0.0782,-0.298
GAPDHP22 (glyceraldehyde 3 phosphate dehydrogenase pseudogene 22),1.26,0.917,1.82
NT5DC1 (5'-nucleotidase domain containing 1),2.05,1.49,1.86
ERAP1 (endoplasmic reticulum aminopeptidase 1),-2.01,-1.06,-0.971
ZNF211 (zinc finger protein 211),-1.04,-0.396,-0.967
LOC387994 (retired record),0.818,0.877,0.939
LOC389637 (retired record),-0.294,-0.323,-0.311
PRR25 (proline rich 25),1.89 (active),2.01,2.32
MAB21L3 (mab-21 like 3),-0.523,-0.392,-1.29
LOC388429 (retired record),-0.157,-0.484,0.533
"LOC100133284 (striatin, calmodulin binding protein pseudogene)",-0.973,-0.999,-0.91
FAM117B (family with sequence similarity 117 member B),-0.476,-1.12,-1.1
SNRNP70 (small nuclear ribonucleoprotein U1 subunit 70),1.57,1.77,1.43
SEPHS1P4 (selenophosphate synthetase 1 pseudogene 4),-0.418,-0.434,-0.724
PNLIPRP2 (pancreatic lipase related protein 2 (gene/pseudogene)),2.02,1.44,1.9
ZNF221 (zinc finger protein 221),-0.052,0.327,0.491
ZNF23 (zinc finger protein 23),0.0475,0.251,0.171
DGKE (diacylglycerol kinase epsilon),0.299,-0.112,-0.114
PFDN1 (prefoldin subunit 1),1.92,1.63,1.77
AACSP1 (acetoacetyl-CoA synthetase pseudogene 1),1.9 (active),1.41,2.71
AK8 (adenylate kinase 8),-0.531,-0.478,-0.136
KIF6 (kinesin family member 6),2.09,0.661,0.93
ARHGEF10L (Rho guanine nucleotide exchange factor 10 like),2.28 (active),1.21,4.28
USP17L8 (ubiquitin specific peptidase 17 like family member 8),0.124,-0.421,-0.459
CDKN2B (cyclin dependent kinase inhibitor 2B),0.13,-0.349,0.102
RBM12 (RNA binding motif protein 12),-0.634,-1.64,-1.73
ACSF3 (acyl-CoA synthetase family member 3),0.832,0.224,0.573
CYB5D2 (cytochrome b5 domain containing 2),0.0502,0.0677,-0.57

Already shown: 2 of the entries above.
gene knocked down,"robust z-score, replicate 1","robust z-score, replicate 2","robust z-score, replicate 3"
DGKE (diacylglycerol kinase epsilon),0.299,-0.112,-0.114
PFDN1 (prefoldin subunit 1),1.92,1.63,1.77
